These are yes or no findings as the source states them, for the method shown. In cells and extracts the contact can be indirect. Some binding calls cover weakened binding; strength is not graded here. Tags and fused reporters may be left off the sequences shown.
How the values were obtained:
Myc-Ebf1 (3T3-L1) = target: T1, Myc-Ebf1 (3T3-L1) (UniProt Q07802); test: co-IP; 3T3-L1 preadipocytes transfected with Myc-Ebf1 and Flag-Zfp521WT or Flag-Zfp521Δ27-30, harvested after 24 h; immunoprecipitation with anti-Myc beads, blots with anti-Zfp521, anti-Flag or anti-Myc
T1 sequence: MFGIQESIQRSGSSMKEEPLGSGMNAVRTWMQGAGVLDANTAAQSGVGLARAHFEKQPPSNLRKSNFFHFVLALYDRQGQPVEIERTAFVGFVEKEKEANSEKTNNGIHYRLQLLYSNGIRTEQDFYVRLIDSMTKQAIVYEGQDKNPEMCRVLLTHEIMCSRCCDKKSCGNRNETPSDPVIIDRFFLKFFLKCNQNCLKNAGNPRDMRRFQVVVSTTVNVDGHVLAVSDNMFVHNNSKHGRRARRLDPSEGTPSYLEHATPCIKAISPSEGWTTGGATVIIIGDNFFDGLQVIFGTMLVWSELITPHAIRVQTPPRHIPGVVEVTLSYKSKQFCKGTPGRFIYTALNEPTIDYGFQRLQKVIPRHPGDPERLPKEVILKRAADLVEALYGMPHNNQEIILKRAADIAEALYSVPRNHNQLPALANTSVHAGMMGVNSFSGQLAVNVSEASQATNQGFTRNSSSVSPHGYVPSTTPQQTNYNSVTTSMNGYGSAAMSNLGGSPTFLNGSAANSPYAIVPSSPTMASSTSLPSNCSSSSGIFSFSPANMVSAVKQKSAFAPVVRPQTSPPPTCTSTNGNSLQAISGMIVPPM

6Myc-Ebf1 (293T), Q07802 = target: T2, 6Myc-Ebf1 (293T), Q07802; test: co-IP; 293T cells transiently transfected (48 h) with 2HA-Zfp521, 3Flag-Zfp423 and 6Myc-Ebf1 in combinations (also without Ebf1); immunoprecipitation with anti-Flag, anti-HA or anti-Myc as indicated, blots with the same antibodies; details: remark: other sources report otherwise
T2 chain: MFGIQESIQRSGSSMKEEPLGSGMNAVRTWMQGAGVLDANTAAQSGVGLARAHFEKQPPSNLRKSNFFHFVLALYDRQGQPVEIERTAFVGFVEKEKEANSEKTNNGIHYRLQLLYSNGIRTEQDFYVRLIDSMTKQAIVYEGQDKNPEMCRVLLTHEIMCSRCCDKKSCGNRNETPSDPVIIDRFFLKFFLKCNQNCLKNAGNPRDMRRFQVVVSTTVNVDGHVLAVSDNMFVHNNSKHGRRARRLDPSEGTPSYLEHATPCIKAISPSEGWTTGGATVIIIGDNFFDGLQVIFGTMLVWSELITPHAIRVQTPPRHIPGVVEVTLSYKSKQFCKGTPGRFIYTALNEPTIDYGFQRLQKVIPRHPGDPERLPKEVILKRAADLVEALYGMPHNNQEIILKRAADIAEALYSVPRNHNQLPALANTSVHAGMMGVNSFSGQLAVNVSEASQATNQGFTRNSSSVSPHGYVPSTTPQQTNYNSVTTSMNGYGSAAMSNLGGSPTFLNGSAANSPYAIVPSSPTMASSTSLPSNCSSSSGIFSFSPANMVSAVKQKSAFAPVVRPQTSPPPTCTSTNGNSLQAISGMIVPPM

Binder	binding (Myc-Ebf1 (3T3-L1))	binding (6Myc-Ebf1 (293T), Q07802)
Flag-Zfp521WT (3T3-L1) (protein, UniProt Q6KAS7 1-1311) MSRRKQAKPRSLKDPNCKLEDKIEDGEAVDCKKRPEDGEELEEDAVHSCDSCLQVFESLSDITEHKIHQCQLTDGVDVEDDPSCSWPASSPSSKDQTSPSHGEGCDFGEEEGGPGLPYPCQFCDKSFSRLSYLKHHEQSHSDKLPFKCTYCSRLFKHKRSRDRHIKLHTGDKKYHCSECDAAFSRSDHLKIHLKTHTSNKPYKCAVCRRGFLSSSSLHGHMQVHERNKDGSQSGSRMEDWKMKDTQKCSQCEEGFDFPEDLQKHIAECHPECSPNEDRAALQCMYCHELFVEETSLMNHIEQVHGGEKKNSCSICSESFLTVEELYSHMDSHQQPESCNHSNSPSLVTVGYTSVSSTTPDSNLSVDSSTMVEAAPPIPKSRGRKRAAQQTSDMTGPSSKQAKVTYSCIYCNKQLFSSLAVLQIHLKTMHLDKPEQAHICQYCLEVLPSLYNLNEHLKQVHEAQDPGLIVSAMPAIVYQCNFCSEVVNDLNTLQEHIRCSHGFANPAAKDSNAFFCPHCYMGFLTDSSLEEHIRQVHCDLSGSRFGSPVLGTPKEPVVEVYSCSYCTNSPIFNSVLKLNKHIKENHKNIPLALNYIHNGKKSRALSPLSPVAIEQTTLKMMQTVGGGPARASGEYICNQCGAKYTSLDSFQTHLKTHLDTVLPKLTCPQCNKEFPNQESLLKHVTIHFMITSTYYICESCDKQFTSVDDLQKHLLDMHTFVFFRCTLCQEVFDSKVSIQLHLAVKHSNEKKVYRCTSCNWDFRNETDLQLHVKHNHLENQGKVHKCIFCGESFGTEVELQCHITTHSKKYNCRFCSKAFHAVILLEKHLREKHCVFETKTPNCGTNGASEQVQKEEAELQTLLTNSQESHNSHDGSEEDVDSSEPMYGCDICGAAYTMETLLQNHQLRDHNIRPGESAIVKKKAELIKGNYKCNVCSRTFFSENGLREHMQTHLGPVKHYMCPICGERFPSLLTLTEHKVTHSKSLDTGNCRICKMPLQSEEEFLEHCQMHPDLRNSLTGFRCVVCMQTVTSTLELKIHGTFHMQKTGNGSSVQTTGRGQHVQKLYKCASCLKEFRSKQDLVKLDINGLPYGLCAGCVNLSKSSSPGLSLPPGASRPGLGQNESLSAMEGKGKAGGLKTRCSSCNVKFESESELQNHIQTVHRELVPDANSTQLKTPQVSPMPRISPSQSDEKKTYQCIKCQMVFYNEWDIQVHVANHMIDEGLNHECKLCSQTFDSPAKLQCHLIEHSFEGMGGTFKCPVCFTVFVQANKLQQHIFSAHGQEDKIYDCTQCPQKFFFQTELQNHTMTQHSS	binds	–
3Flag-Zfp423 (293T), Q80TS5 1-1292 (protein) MSRRKQAKPRSVKVEEGEASDFSLAWDSSVAAAGGLEGEPECDRKTSRALEDRNSVTSQEERNEDDEDVEDESIYTCDHCQQDFESLADLTDHRAHRCPGDGDDDPQLSWVASSPSSKDVASPTQMIGDGCDLGLGEEEGGTGLPYPCQFCDKSFIRLSYLKRHEQIHSDKLPFKCTFCSRLFKHKRSRDRHIKLHTGDKKYHCHECEAAFSRSDHLKIHLKTHSSSKPFKCSVCKRGFSSTSSLQSHMQAHKKNKEHLAKSEKEAKKDDFMCDYCEDTFSQTEELEKHVLTLHPQLSEKADLQCIHCPEVFVDESTLLAHIHQAHANQKHKCPMCPEQFSSVEGVYCHLDSHRQPDSSNHSVSPDPVLGSVASMSSATPDSSASVERGSTPDSTLKPLRGQKKMRDDGQSWPKVVYSCPYCSKRDFTSLAVLEIHLKTIHADKPQQSHTCQICLDSMPTLYNLNEHVRKLHKSHAYPVMQFGNISAFHCNYCPEMFADINSLQEHIRVSHCGPNANPPDGNNAFFCNQCSMGFLTESSLTEHIQQAHCSVGSTKLESPVVQPTQSFMEVYSCPYCTNSPIFGSILKLTKHIKENHKNIPLAHSKKSKAEQSPVSSDVEVSSPKRQRLSGSANSISNGEYPCNQCDLKFSNFESFQTHLKLHLELLLRKQACPQCKEDFDSQESLLQHLTVHYMTTSTHYVCESCDKQFSSVDDLQKHLLDMHTFVLYHCTLCQEVFDSKVSIQVHLAVKHSNEKKMYRCTACNWDFRKEADLQVHVKHSHLGNPAKAHKCIFCGETFSTEVELQCHITTHSKKYNCRFCSKAFHAVILLEKHLREKHCVFDAAAENGTANGVPPTSTKKAEPADLQGMLLKNPEAPNSHEASEDDVDASEPMYGCDICGAAYTMEVLLQNHRLRDHNIRPGEDDGSRKKAEFIKGSHKCNVCSRTFFSENGLREHLQTHRGPAKHYMCPICGERFPSLLTLTEHKVTHSKSLDTGTCRICKMPLQSEEEFIEHCQMHPDLRNSLTGFRCVVCMQTVTSTLELKIHGTFHMQKLAGSSAASSPNGQGLQKLYKCALCLKEFRSKQDLVRLDVNGLPYGLCAGCMARSANGQVGGLAPPEPADRPCAGLRCPECNVKFESAEDLESHMQVDHRDLTPETSGPRKGAQTSPVPRKKTYQCIKCQMTFENEREIQIHVANHMIEEGINHECKLCNQMFDSPAKLLCHLIEHSFEGMGGTFKCPVCFTVFVQANKLQQHIFAVHGQEDKIYDCSQCPQKFFFQTELQNHTMSQHAQ	–	binds

Reference: article PMC3507953
